SMILES strings stand for the structures. Where a name gives a salt, the structure may show the parent alone. Some of the results follow. The data scatter; read single values as rough. Some results are limits rather than exact numbers.

The experiment deals with Peyronie's disease tunica albuginea primary fibroblasts. The experiment is described as follows: inhibition of TGF-beta1-induced alpha-SMA expression (myofibroblast transformation), relative to TGF-beta1-only and untreated controls; higher = stronger inhibition of myofibroblast transformation. The following applies: 10 µM; TGF-beta1 10 ng/mL; 72 h.
Consider `C=C1/C(=C\C=C2/CCC[C@]3(C)[C@@H]([C@H](C)CCCC(C)C)CC[C@@H]23)C[C@@H](O)C[C@@H]1O` [Alfacalcidol], for which the “inhibition of TGF-beta1-induced alpha-SMA expression” value (shortened to “inhibition”) was -39.7%.
With `CN(C)CCC=C1c2ccccc2COc2ccccc21` [Doxepin HCl], the “inhibition” value came out at 33.3%.
For the molecule `CN1CCC[C@@H]1Cc1c[nH]c2ccc(CCS(=O)(=O)c3ccccc3)cc12` [Eletriptan HBr], the “inhibition” value was found to be 23.2%.
The value for `CC(C)[N+](C)(CCOC(=O)C1c2ccccc2Oc2ccccc21)C(C)C` [Propantheline bromide] was 11.9%; that for `COc1ccccc1Oc1c(NS(=O)(=O)c2ccc(C(C)(C)C)cc2)nc(-c2ncccn2)nc1OCCO` [Bosentan Hydrate] was 16.7%; that for `COc1cc2c(Oc3ccc(NC(=O)C4(C(=O)Nc5ccc(F)cc5)CC4)cc3F)ccnc2cc1OCCCN1CCOCC1` was greater than 100%.
Take `NS(=O)(=O)c1cc2c(cc1Cl)NC(C(Cl)Cl)NS2(=O)=O` (stereo unspecified) [Trichlormethiazide]: the “inhibition” value stood at 30.4%.
Consider `CN[C@@H]1[C@H](O)[C@H](NC)[C@H]2O[C@@]3(O)C(=O)C[C@@H](C)O[C@H]3O[C@@H]2[C@H]1O` [Spectinomycin 2HCl], for which the “inhibition” value is 29.7%.
The value for `Cc1onc(-c2ccccc2Cl)c1C(=O)N[C@@H]1C(=O)N2[C@@H]1SC(C)(C)[C@@H]2C(=O)O` [Cloxacillin Sodium] was 16.5%.
The value for `C#Cc1cccc(Nc2ncnc3cc(OCCOC)c(OCCOC)cc23)c1` [Erlotinib HCl (OSI-744)] was -35.1%.
The value for `C#Cc1cccc(Nc2ncnc3cc(OCCOC)c(OCCOC)cc23)c1` [Erlotinib] was 3.37%; that for `CCN(CC)CCOC(=O)c1ccc(N)cc1Cl` [Chloroprocaine HCl] was -7.72%; that for `C[C@@H]1NC(=O)[C@@H](N)CNC(=O)[C@H](C2CCNC(=N)N2)NC(=O)/C(=C/NC(N)=O)NC(=O)[C@H](CNC(=O)CC(N)CCCN)NC1=O.N=C1NCC[C@H]([C@@H]2NC(=O)/C(=C/NC(N)=O)NC(=O)[C@H](CNC(=O)C[C@@H](N)CCCN)NC(=O)[C@H](CO)NC(=O)[C@@H](N)CNC2=O)N1` [Capreomycin Sulfate] was 15.3%.
As to `CC12CCC(CC1=O)C2(C)C` (stereo not drawn) [(+)-Camphor], the “inhibition” value amounted to 0.0607%.
The value for `Cc1c(-c2ccccc2)oc2c(C(=O)OCCN3CCCCC3)cccc2c1=O` [Flavoxate HCl] was 26.6%; that for `NCCCC(=O)O` [4-Aminobutyric acid] was 11.9%.
As to `CCCCCCOC(=O)NC(=N)c1ccc(NCc2nc3cc(C(=O)N(CCC(=O)OCC)c4ccccn4)ccc3n2C)cc1` [Dabigatran Etexilate], the “inhibition” value is -9.63%.
The value for `COc1ccc(O)cc1` [Mequinol] was 20.4%; that for `CC(C(=O)O)c1ccc2c(c1)[nH]c1ccc(Cl)cc12` (stereo unspecified) [Carprofen] was 19%.
Under `CO/N=C(\C(=O)N[C@@H]1C(=O)N2C(C(=O)O)=C(CSc3nnnn3C)CS[C@H]12)c1csc(N)n1` [Cefmenoxime hydrochloride] stands 9.39%; under `Cc1ccccc1C(=O)Nc1ccc(C(=O)N2CCCC(O)c3cc(Cl)ccc32)c(C)c1` (stereo unspecified) [Tolvaptan], 37%; under `CC(=O)C1C(=O)C=C(C)OC1=O` (stereo unspecified) [Dehydroacetic acid], -27.4%.
Under `Nc1nc2[nH]cnc2c(=S)[nH]1` [Thioguanine] stands 2.66%; under `CC(C)c1cc2c(cc1S(=O)(=O)O)[C@@]1(C)CCC[C@@](C)(C(=O)O)[C@@H]1CC2` [Ecabet sodium], 14.1%; under `CN(C)C(=O)C(CCN1CCC(O)(c2ccc(Cl)cc2)CC1)(c1ccccc1)c1ccccc1` [Loperamide HCl], 57.4%.
For `Cc1c(OCC(F)(F)F)ccnc1C[S@@+]([O-])c1nc2ccccc2[nH]1` [Dexlansoprazole], the “inhibition” value is -27.4%.
The value for `CC[C@H]1OC(=O)[C@H](C)[C@@H](O[C@H]2C[C@@](C)(OC)[C@@H](O)[C@H](C)O2)[C@H](C)[C@@H](O[C@@H]2O[C@H](C)C[C@H](N(C)C)[C@H]2O)[C@](C)(O)C[C@@H](C)C(=O)[C@H](C)[C@H]2OC(=O)O[C@@]21C` [Erythromycin Cyclocarbonate] was 31.4%; that for `C[C@H](CCC(=O)O)[C@H]1CC[C@H]2[C@@H]3[C@H](O)C[C@@H]4C[C@H](O)CC[C@]4(C)[C@H]3C[C@H](O)[C@]12C` [Cholic acid] was 4.57%.
Under `OB1OCc2cc(F)ccc21` [Tavaborole (AN-2690)] stands 30%; under `O=C(OCC(O)CO)c1ccccc1Nc1ccnc2cc(Cl)ccc12` (stereo unspecified) [Glafenine HCl], 30.7%.
The value for `NC(=O)c1cn(Cc2c(F)cccc2F)nn1` [Rufinamide] was 5.16%; that for `CC(C(=O)O)c1ccc(-c2ccccc2)c(F)c1` (stereo unspecified) [Flurbiprofen] was 49.4%; that for `C[C@H]1O[C@@H](O[C@H]2[C@@H](O)C[C@H](O[C@H]3[C@@H](O)C[C@H](O[C@H]4CC[C@@]5(C)[C@H](CC[C@@H]6[C@@H]5C[C@@H](O)[C@]5(C)[C@@H](C7=CC(=O)OC7)CC[C@]65O)C4)O[C@@H]3C)O[C@@H]2C)C[C@H](O)[C@@H]1O` [Digoxin] was greater than 100%.
Consider `CC[C@]1(O)C[C@H]2CN(CCc3c([nH]c4ccccc34)[C@@](C(=O)OC)(c3cc4c(cc3OC)N(C=O)[C@H]3[C@@](O)(C(=O)OC)[C@H](OC(C)=O)[C@]5(CC)C=CCN6CC[C@]43[C@@H]65)C2)C1` [Vincristine sulfate], for which the “inhibition” value was 87.6%.
Under `Nc1nc(CC(=O)Nc2ccc(CCNC[C@H](O)c3ccccc3)cc2)cs1` [Mirabegron] stands -4.58%.
For `NC[C@@H]1O[C@H](O[C@H]2[C@@H](O)[C@H](O[C@@H]3[C@@H](O)[C@H](N)C[C@H](N)[C@H]3O[C@H]3O[C@H](CO)[C@@H](O)[C@H](O)[C@H]3N)O[C@@H]2CO)[C@H](N)[C@@H](O)[C@@H]1O` [Paromomycin Sulfate], the “inhibition” value worked out at 17.4%.
Regarding `COc1ccccc1OCC(O)CO` (stereo unspecified) [Guaifenesin], the “inhibition” value was 7.44%.
Turning to `Cc1cc(=O)[nH]c(=S)[nH]1` [Methylthiouracil], the “inhibition” value was determined as 13.1%.
Under `CN1[C@@H]2CC[C@H]1C[C@@H](OC(=O)c1c[nH]c3ccccc13)C2` [Tropisetron] stands -0.994%; under `CN1[C@@H]2CC[C@H]1C[C@@H](OC(=O)c1c[nH]c3ccccc13)C2` [Tropisetron HCl], 14.6%; under `Cc1cccc(C)c1OCC(C)N` (stereo unspecified) [Mexiletine HCl], -4.81%.
